Source: PubChem BioAssay AID1508588 (Peter MacCallum Cancer Centre, 2020)

Screen: 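Genome-wide search for knock-downs that heighten vemurafenib action in melanoma cells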 (primary screen)
Cell system: human WM266.4 melanoma cells (BRAF V600 mutant)
Knock-down reagent: siRNA pool against human genes, 40 nM
Timing: 96 h from transfection to read-out
Treatment: vemurafenib 300 nM (about IC25), added 48 h after transfection, for 48 h; comparison arm got DMSO vehicle only
Measured: 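Cell gain (DAPI nuclei at end minus before drug, mean of two replicates) and medium lactate by absorbance per cell, both as ratio to non-targeting siRNA, also grouped into fold-change classes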
Direction: cell gain with vemurafenib: higher = more cell gain than with non-targeting siRNA; lactate per cell with vemurafenib: higher = more lactate made per cell
Active means: 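Enhancement is called by pairing each knock-down's vehicle-arm and drug-arm fold-change classes for viability or glycolysis; which class combinations qualify is not given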
Meaning of the calls: active = enhances vemurafenib effect; inactive = no enhancement seen
The deposit covers about 18,000 reagents; below is a part drawn at random. 790 of them (4.4%) were called active. 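Calls rest on a combination of fold-change classes in drug and vehicle arms, not all shown here.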 Entries without a mark were called inactive.

After knock-down of TDRD7 the results were cell gain with vemurafenib 0.27; lactate per cell with vemurafenib 0.89.
Depletion of ST8SIA1 resulted in: cell gain with vemurafenib 0.53; lactate per cell with vemurafenib 0.94.
With knock-down of FGF3 the results were cell gain with vemurafenib 0.66; lactate per cell with vemurafenib 1.56.
ATPAF1 scored cell gain with vemurafenib 0.75; lactate per cell with vemurafenib 0.96.
Against H4C6 the deposit lists cell gain with vemurafenib 0.22; lactate per cell with vemurafenib 3.14.
After knock-down of BAG2, the screen gave cell gain with vemurafenib 0.82; lactate per cell with vemurafenib 0.82.
With knock-down of ZSWIM1, the record shows cell gain with vemurafenib 0.71; lactate per cell with vemurafenib 1.01.
Depletion of SSUH2 came out at: cell gain with vemurafenib 0.97; lactate per cell with vemurafenib 0.78.
Knock-down of TRAM1L1 came out at: cell gain with vemurafenib 0.69; lactate per cell with vemurafenib 0.94.
OR2T34 scored cell gain with vemurafenib 0.05; lactate per cell with vemurafenib 2.7.
After knock-down of DLGAP4 the results were cell gain with vemurafenib 0.58; lactate per cell with vemurafenib 0.9.
Knock-down of ZBTB7C resulted in: cell gain with vemurafenib 0.29; lactate per cell with vemurafenib 1.69.
Silencing of OSBPL5 came out at: cell gain with vemurafenib 0.8; lactate per cell with vemurafenib 0.96.
After knock-down of AIFM1 the results were cell gain with vemurafenib 0.43; lactate per cell with vemurafenib 1.01.

Already shown: entries from further up.
OR2T34: cell gain with vemurafenib = 0.05; lactate per cell with vemurafenib = 2.7
DLGAP4: cell gain with vemurafenib = 0.58; lactate per cell with vemurafenib = 0.9
ZBTB7C: cell gain with vemurafenib = 0.29; lactate per cell with vemurafenib = 1.69
OSBPL5: cell gain with vemurafenib = 0.8; lactate per cell with vemurafenib = 0.96
AIFM1: cell gain with vemurafenib = 0.43; lactate per cell with vemurafenib = 1.01

Additional records follow.
Against FATE1, the entry reads cell gain with vemurafenib 0.3 (active); lactate per cell with vemurafenib 0.48.
Depletion of IGF2R gave: cell gain with vemurafenib 0.28; lactate per cell with vemurafenib 2.47.
Knock-down of SDHAF3 gave: cell gain with vemurafenib 0.34; lactate per cell with vemurafenib 1.52.
PPP1R1C gave cell gain with vemurafenib 0.74; lactate per cell with vemurafenib 0.4.
With knock-down of PRR11 the results were cell gain with vemurafenib 0.71; lactate per cell with vemurafenib 1.04.
Depletion of ALPL came out at: cell gain with vemurafenib 0.37 (active); lactate per cell with vemurafenib 0.6.
For BAG1 the deposit lists cell gain with vemurafenib 0.47; lactate per cell with vemurafenib 2.62.
Knock-down of SULT1E1 resulted in: cell gain with vemurafenib 0.48; lactate per cell with vemurafenib 0.57.
OR10T2 gave cell gain with vemurafenib 0.33; lactate per cell with vemurafenib 0.68.
After knock-down of MRGBP the results were cell gain with vemurafenib 0.39; lactate per cell with vemurafenib 0.96.
For PITPNB, the values are cell gain with vemurafenib 0.59; lactate per cell with vemurafenib 0.75.
Depletion of SLC52A1 came out at: cell gain with vemurafenib 0.7; lactate per cell with vemurafenib 0.92.
With knock-down of KCTD9, the screen gave cell gain with vemurafenib 0.62; lactate per cell with vemurafenib 0.68.
For FAH, the entry reads cell gain with vemurafenib 0.52; lactate per cell with vemurafenib 1.51.
For STAM2, the values are cell gain with vemurafenib 0.62; lactate per cell with vemurafenib 0.98.
With knock-down of TARS1 the results were cell gain with vemurafenib 0.53; lactate per cell with vemurafenib 0.92.
Silencing of LUC7L2 came out at: cell gain with vemurafenib 0.4; lactate per cell with vemurafenib 0.5.
Against LOC652759 (retired record), the values are cell gain with vemurafenib 0.55; lactate per cell with vemurafenib 0.75.
After knock-down of PMFBP1 the results were cell gain with vemurafenib 0.42; lactate per cell with vemurafenib 1.31.
Silencing of FDX1 came out at: cell gain with vemurafenib 0.71; lactate per cell with vemurafenib 0.92.
For ZNF613, the values are cell gain with vemurafenib 0.21; lactate per cell with vemurafenib 1.04.
Against TCOF1 the deposit lists cell gain with vemurafenib 0.94; lactate per cell with vemurafenib 0.72.
For ZNF813 the deposit lists cell gain with vemurafenib 0.76; lactate per cell with vemurafenib 0.98.
After knock-down of CBY2 the results were cell gain with vemurafenib 0.94; lactate per cell with vemurafenib 0.76.
Silencing of PHC1 came out at: cell gain with vemurafenib 0.46 (active); lactate per cell with vemurafenib 0.46.
OR9Q1 gave cell gain with vemurafenib 1.22; lactate per cell with vemurafenib 0.57.
